Test results: paper PMC4753506
No constants are given. Whether binding was seen depends on the method and setting. In cells and extracts the contact can be indirect. Some binding calls cover weakened binding; strength is not graded here.

Chains of the proteins cited; added tags and fusions are not shown. Lines headed by an entry give the natural chain unless they say otherwise; changes in a name come on top.
UniProt P20263: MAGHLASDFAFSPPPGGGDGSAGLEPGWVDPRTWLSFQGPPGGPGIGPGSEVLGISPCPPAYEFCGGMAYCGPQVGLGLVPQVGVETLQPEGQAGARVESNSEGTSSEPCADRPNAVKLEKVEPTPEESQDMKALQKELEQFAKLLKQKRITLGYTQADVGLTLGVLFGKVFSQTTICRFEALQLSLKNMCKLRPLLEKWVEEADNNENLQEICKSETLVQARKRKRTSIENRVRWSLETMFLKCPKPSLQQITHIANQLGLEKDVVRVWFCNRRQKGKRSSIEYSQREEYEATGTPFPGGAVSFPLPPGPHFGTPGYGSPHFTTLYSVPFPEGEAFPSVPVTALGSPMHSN
UniProt P48432: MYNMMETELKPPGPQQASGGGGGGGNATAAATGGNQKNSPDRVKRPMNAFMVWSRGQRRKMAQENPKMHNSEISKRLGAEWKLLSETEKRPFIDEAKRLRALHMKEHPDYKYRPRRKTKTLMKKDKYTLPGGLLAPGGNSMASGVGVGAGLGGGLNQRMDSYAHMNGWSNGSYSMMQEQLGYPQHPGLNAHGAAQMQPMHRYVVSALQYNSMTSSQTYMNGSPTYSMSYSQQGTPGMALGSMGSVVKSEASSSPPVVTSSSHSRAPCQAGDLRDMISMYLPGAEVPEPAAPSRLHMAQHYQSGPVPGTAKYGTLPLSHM

Target: murine Oct4 Q174A, Flag-tagged (mouse) (UniProt P20263)
Test: co-IP; HEK293 cells co-transfected with Sox2-Myc and Flag-tagged Oct4 WT or Q174A (or EGFP-Flag); lysis in 50 mM Tris-HCl pH 7.5, 150 mM NaCl, 1 mM EDTA, 10% glycerol, 0.5% Triton X-100; anti-Flag beads 4-6 h; washes with 300 mM NaCl; Western blot

binding: binds
Substance: Sox2-Myc (from UniProt P48432 1-319)
